# According to the supplement of paper PMC8728848:
# Some of the results follow.
# B1: Ovorubin (Pomacea canaliculata), J7I2T6 (protein)
# chain: MFVATSLLLAIATLVVRASPHNYLIMDIEPPKSVSERDILNLLSPLQVKHSFRVTGSTRLLIVIRLDAQSYEKLDEITVPGKVEVIPAVNMADTMERCGVSWPRVELTDDNVTLFESESTLTDVTKEQLKAMLIGYGEHMSGLLQAHRFEYYQAAGATPHRHFVFVNSVPDEIEVFGREGVDIWGGPGEFVVKPQYVTRI
# How the values were obtained:
# Assay in all cases: glycan array binding signal (z-score within array); higher = stronger binding
# Conditions in all cases: glycan notation: IUPAC condensed, linker removed
# Fuc(a1-2)Gal = biological target: Fuc(a1-2)Gal
# Summary of the method: (§1)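 Glycan array data were curated from 3228 arrays in the Consortium for Functional Glycomics database and kept only where the protein sequence was available. Glycan names were converted to IUPAC-condensed notation, and columns mapping to the same glycan were averaged. The binding signal is a within-array Z-score, averaged across arrays of the same protein sequence at different concentrations or buffers and across linkers. Negative Z-scores can be read as non-binding.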
# Fuc(a1-2)Gal(b1-3)GalNAc = biological target: Fuc(a1-2)Gal(b1-3)GalNAc
# Summary of the method: as §1
# [1] = biological target: Fuc(a1-2)Gal(b1-3)GalNAc(a1-3)[Fuc(a1-2)]Gal(b1-4)Glc
# Summary of the method: as §1
# [2] = biological target: Fuc(a1-2)Gal(b1-3)GalNAc(a1-3)[Fuc(a1-2)]Gal(b1-4)GlcNAc
# Summary of the method: as §1
# [3] = biological target: Fuc(a1-2)Gal(b1-3)GalNAc(b1-3)Gal
# Summary of the method: as §1
# [4] = biological target: Fuc(a1-2)Gal(b1-3)GalNAc(b1-3)Gal(a1-4)Gal(b1-4)Glc
# Summary of the method: as §1
# [5] = biological target: Fuc(a1-2)Gal(b1-3)GalNAc(b1-4)[Neu5Ac(a2-3)]Gal(b1-4)Glc
# Summary of the method: as §1
# Fuc(a1-2)Gal(b1-3)GlcNAc = biological target: Fuc(a1-2)Gal(b1-3)GlcNAc
# Summary of the method: as §1
# [6] = biological target: Fuc(a1-2)Gal(b1-3)GlcNAc(b1-2)Man(a1-3)[Fuc(a1-2)Gal(b1-3)GlcNAc(b1-2)Man(a1-6)]Man(b1-4)GlcNAc(b1-4)GlcNAc
# Summary of the method: as §1
# [7] = biological target: Fuc(a1-2)Gal(b1-3)GlcNAc(b1-2)Man(a1-3)[Fuc(a1-2)Gal(b1-3)GlcNAc(b1-2)Man(a1-6)]Man(b1-4)GlcNAc(b1-4)[Fuc(a1-6)]GlcNAc
# Summary of the method: as §1
# [8] = biological target: Fuc(a1-2)Gal(b1-3)GlcNAc(b1-3)Gal(b1-4)Glc
# Summary of the method: as §1
# [9] = biological target: Fuc(a1-2)Gal(b1-3)GlcNAc(b1-3)GalNAc
# Summary of the method: as §1
# [10] = biological target: Fuc(a1-2)Gal(b1-3)GlcNAc(b1-3)[Fuc(a1-2)Gal(b1-3)GlcNAc(b1-6)]GalNAc
# Summary of the method: as §1
# [11] = biological target: Fuc(a1-2)Gal(b1-3)GlcNAc(b1-3)[Gal(b1-4)GlcNAc(b1-6)]Gal(b1-4)Glc
# Summary of the method: as §1
# [12] = biological target: Fuc(a1-2)Gal(b1-3)GlcNAc(b1-3)[Neu5Ac(a2-6)Gal(b1-4)GlcNAc(b1-6)]Gal(b1-4)Glc
# Summary of the method: as §1
# [13] = biological target: Fuc(a1-2)Gal(b1-3)GlcNAc6S
# Summary of the method: as §1
# [14] = biological target: Fuc(a1-2)Gal(b1-3)[Fuc(a1-4)]GlcNAc
# Summary of the method: as §1
# [15] = biological target: Fuc(a1-2)Gal(b1-3)[Fuc(a1-4)]GlcNAc(b1-2)Man(a1-3)[Fuc(a1-2)Gal(b1-3)[Fuc(a1-4)]GlcNAc(b1-2)Man(a1-3)]Man(b1-4)GlcNAc(b1-4)GlcNAc
# Summary of the method: as §1
# [16] = biological target: Fuc(a1-2)Gal(b1-3)[Fuc(a1-4)]GlcNAc(b1-2)Man(a1-3)[Fuc(a1-2)Gal(b1-3)[Fuc(a1-4)]GlcNAc(b1-2)Man(a1-6)]Man(b1-4)GlcNAc(b1-4)[Fuc(a1-6)]GlcNAc(b1-4)[Fuc(a1-6)]GlcNAc
# Summary of the method: as §1
# [17] = biological target: Fuc(a1-2)Gal(b1-3)[Fuc(a1-4)]GlcNAc(b1-3)[Fuc(a1-3)[Gal(b1-4)]GlcNAc(b1-6)]Gal(b1-4)Glc
# Summary of the method: as §1
# [18] = biological target: Fuc(a1-2)Gal(b1-3)[Fuc(a1-4)]GlcNAc(b1-3)[Gal(b1-4)GlcNAc(b1-6)]Gal(b1-4)Glc
# Summary of the method: as §1
# [19] = biological target: Fuc(a1-2)Gal(b1-4)Fuc(a1-3)]GlcNAc(b1-2)Man(a1-3)[Fuc(a1-2)Gal(b1-4)[Fuc(a1-3)]GlcNAc(b1-2)Man(a1-6)]Man(b1-4)GlcNAc(b1-4)GlcNAc
# Summary of the method: as §1
# Fuc(a1-2)Gal(b1-4)Glc = biological target: Fuc(a1-2)Gal(b1-4)Glc
# Summary of the method: as §1
# Fuc(a1-2)Gal(b1-4)Glc6S = biological target: Fuc(a1-2)Gal(b1-4)Glc6S
# Summary of the method: as §1
# Fuc(a1-2)Gal(b1-4)GlcNAc = biological target: Fuc(a1-2)Gal(b1-4)GlcNAc
# Summary of the method: as §1
# [20] = biological target: Fuc(a1-2)Gal(b1-4)GlcNAc(b1-2)Man
# Summary of the method: as §1
# [21] = biological target: Fuc(a1-2)Gal(b1-4)GlcNAc(b1-2)Man(a1-3)[Fuc(a1-2)Gal(b1-4)GlcNAc(b1-2)Man(a1-6)]Man(b1-4)GlcNAc(b1-4)GlcNAc
# Summary of the method: as §1
# [22] = biological target: Fuc(a1-2)Gal(b1-4)GlcNAc(b1-2)Man(a1-3)[Fuc(a1-2)Gal(b1-4)GlcNAc(b1-2)Man(a1-6)]Man(b1-4)GlcNAc(b1-4)[Fuc(a1-6)]GlcNAc
# Summary of the method: as §1
# [23] = biological target: Fuc(a1-2)Gal(b1-4)GlcNAc(b1-2)[Fuc(a1-2)Gal(b1-4)GlcNAc(b1-4)]Man(a1-3)[Fuc(a1-2)Gal(b1-4)GlcNAc(b1-2)Man(a1-6)]Man(b1-4)GlcNAc(b1-4)GlcNAc
# Summary of the method: as §1
# [24] = biological target: Fuc(a1-2)Gal(b1-4)GlcNAc(b1-3)Gal(b1-4)GlcNAc
# Summary of the method: as §1
binder,measurement,setting,value
B1,glycan array binding signal (z-score),Fuc(a1-2)Gal,0.093
same,glycan array binding signal (z-score),Fuc(a1-2)Gal(b1-3)GalNAc,0.098
same,glycan array binding signal (z-score),[1],0.18
same,glycan array binding signal (z-score),[2],-0.341
same,glycan array binding signal (z-score),[3],-0.987
same,glycan array binding signal (z-score),[4],-0.745
same,glycan array binding signal (z-score),[5],0.056
same,glycan array binding signal (z-score),Fuc(a1-2)Gal(b1-3)GlcNAc,1.06
same,glycan array binding signal (z-score),[6],-0.378
same,glycan array binding signal (z-score),[7],1.06
same,glycan array binding signal (z-score),[8],-0.018
same,glycan array binding signal (z-score),[9],-0.329
same,glycan array binding signal (z-score),[10],0.441
same,glycan array binding signal (z-score),[11],0.184
same,glycan array binding signal (z-score),[12],0.56
same,glycan array binding signal (z-score),[13],0.256
same,glycan array binding signal (z-score),[14],-0.817
same,glycan array binding signal (z-score),[15],0.027
same,glycan array binding signal (z-score),[16],-0.094
same,glycan array binding signal (z-score),[17],-0.241
same,glycan array binding signal (z-score),[18],-0.744
same,glycan array binding signal (z-score),[19],0.055
same,glycan array binding signal (z-score),Fuc(a1-2)Gal(b1-4)Glc,0.009
same,glycan array binding signal (z-score),Fuc(a1-2)Gal(b1-4)Glc6S,0.202
same,glycan array binding signal (z-score),Fuc(a1-2)Gal(b1-4)GlcNAc,0.075
same,glycan array binding signal (z-score),[20],1.08
same,glycan array binding signal (z-score),[21],2.27
same,glycan array binding signal (z-score),[22],1.59
same,glycan array binding signal (z-score),[23],0.623
same,glycan array binding signal (z-score),[24],0.006

# Pulled one by one from the entries so far:
binder,measurement,setting,value
B1,glycan array binding signal (z-score),[16],-0.094
same,glycan array binding signal (z-score),[22],1.59
